This is one part of the list. Further columns of the screen follow, without active or inactive calls. Most of these compounds were active or inconclusive in the main read-out, so they are no random draw. Potencies come from curve fits of mixed quality, noted in brackets.
Assay: qHTS Assay for Lipid Storage Modulators in Drosophila S3 Cells;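 on cell number change: cells counted by Cell Tracker Red CMTPX staining in the red channel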
Details: BODIPY lipid droplet fluorescence, 18-24 h; for cell number change: measured here: cell count max response, cells fed with added oleic acid
Procedure, shortened: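 Laser-scanning cytometry quantifies lipid droplet accumulation (500–530 nm total intensity; droplet/cell object ratio) in oleic acid-fed (400 uM added) Drosophila S3 cells treated with a concentration series. 20 uM Triacsin C defined 100% inhibition.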

[1] = measured here: lipid fluorescence (Fed channel) AC50, cells fed with added oleic acid
[2] = measured here: cell number channel AC50, cells fed with added oleic acid

Compound	cell number change	AC50 [1]	AC50 [2]
CCN(CC)CCCNC(=S)N1CCN(c2nc(-c3ccc(F)cc3)cs2)CC1	6.45%	14.6 µM [falling, partial curve]	
Cc1ccc(S(=O)(=O)N2CCC(C(=O)OCC(=O)N3CCc4ccccc43)CC2)cc1		2.31 µM [falling, full curve]	
COc1cc(/C=C/c2cc(C(=O)O)c3ccccc3n2)cc(OC)c1O	140%		
CCOc1ccccc1OCC(=O)Nc1cccc(S(=O)(=O)N2CCCCCC2)c1	-13%		
CS(=O)(=O)c1ccc(NCCc2ccc(S(N)(=O)=O)cc2)c([N+](=O)[O-])c1	-9.24%	6.51 µM [rising, single point]	
CCC(C)OC(=O)C(C)Oc1ccc(-c2ccccc2)cc1 (configuration not stated)	-18.6%	23.1 µM [falling, partial curve, poor fit]	0.116 µM [falling, full curve]
c1ccc(Cc2nn3c(COc4ccccc4)nnc3s2)cc1	87.1%		
O=C(c1ccc(-c2nnc(-c3ccccc3)o2)cc1)N1CCCCCC1	18%	32.6 µM [rising, partial curve]	
Cc1ccc(C)c(/C=N/Nc2ccccn2)c1		0.116 µM [rising, full curve, poor fit]	
CCCCCn1c(SCC(=O)OCC)nc2cc(C(=O)NCc3ccco3)ccc2c1=O	-22.8%	4.61 µM [falling, full curve, poor fit]	
CCc1nnc(NC(=O)CCC(=O)N2CCN(C3CCCCC3)CC2)s1	-0.506%		
Cc1nn(-c2ccccc2)c(C)c1/C=N/N1CCN(c2ccccn2)CC1	-20.4%	0.731 µM [rising, single point]	0.731 µM [rising, single point]
CCNC(=S)N=Nc1c(O)[nH]c2ccc(C(C)C)cc12	11.3%		
C/C(=N\Nc1ncc(Cl)cc1Cl)c1ccc(S(=O)(=O)NCc2ccco2)cc1	-14.9%	20.6 µM [falling, single point]	
O=C(NC(Cc1ccc(F)cc1)C(=O)O)c1ccccc1 (configuration not stated)	-13.6%		
CCN(CC)S(=O)(=O)c1ccc(C)c(C(=O)Oc2cccc(-c3cnc4ccccc4n3)c2)c1	0.67%	29.1 µM [rising, single point]	

Given in markdown: entries from further up.

| Compound | cell number change | AC50 [1] | AC50 [2] |
| --- | --- | --- | --- |
| Cc1ccc(C)c(/C=N/Nc2ccccn2)c1 |  | 0.116 µM [rising, full curve, poor fit] |  |
| CCCCCn1c(SCC(=O)OCC)nc2cc(C(=O)NCc3ccco3)ccc2c1=O | -22.8% | 4.61 µM [falling, full curve, poor fit] |  |

More records

Compound	cell number change	AC50 [1]	AC50 [2]
N#Cc1cccc(N=Cc2c(O)ccc3ccccc23)c1	-2.41%	29.1 µM [rising, single point]	
CN(Cc1ccccc1)C(=O)CCS(=O)(=O)c1ccc2c(c1)n(C)c(=O)c(=O)n2C	31.8%	0.651 µM [rising, full curve, poor fit]	0.82 µM [rising, full curve, poor fit]
Cc1ccc(NC(=O)C2CCCN2S(=O)(=O)c2cccc3cccnc23)cc1F (configuration not stated)	-0.954%	29.1 µM [rising, single point]	
COC1=C(N2CCOCC2)C(=O)c2ccccc2C1=O	-38.7%		29.1 µM [falling, single point]
Cc1ccc(Sc2nc(-c3ccccc3)ccc2C#N)cc1	-20.4%		0.00517 µM [rising, full curve, poor fit]
CO/N=C\C(=N\Nc1ccc(OC)cc1)C(=O)c1ccccc1	250%	4.11 µM [rising, partial curve]	23.1 µM [rising, partial curve]
COc1ccccc1C(=O)NN1C(=O)C2C3C=CC(O3)C2C1=O (configuration not stated)	-18.5%	23.1 µM [rising, partial curve]	
COC(=O)CSc1ncnc2c1cnn2-c1ccc(C)cc1C	-16.4%	5.8 µM [falling, single point]	3.26 µM [falling, single point]
COCCSc1nnc(-c2cnccn2)o1	-3.7%	23.1 µM [falling, single point]	
O=c1c2ccccc2nc(N/N=C/c2ccc(O)cc2)n1O		0.731 µM [falling, single point]	
O=C(CNc1cccc(S(=O)(=O)N2CCCC2)c1)Nc1ccc(F)cc1F		29.1 µM [falling, single point]	
CCNC(=O)CN(c1ccc(Cl)cc1)S(=O)(=O)c1ccccc1	15.1%		
CCOc1cc(-c2n[nH]c(=S)n2Cc2ccccc2)ccc1OC(F)F	-46.2%	32.6 µM [falling, partial curve]	29.1 µM [falling, single point]
COc1ccc(C(C)C)cc1S(=O)(=O)Nc1ccccn1	-7.45%		
CS(=O)(=O)Nc1ccc(C2=NN(S(C)(=O)=O)C(c3ccc4nccnc4c3)C2)cc1 (configuration not stated)	0.455%		
COc1ccc(CCNC(=O)C2CCN(S(=O)(=O)N3CCC(C)CC3)CC2)cc1OC	-32.1%		29.1 µM [falling, single point]

— PubChem BioAssay AID2685 (National Center for Advancing Translational Sciences (NCATS), 2010)
